In all, about 300,000 compounds went through this assay and about 5,400 (1.8%) were called active. Inconclusive means that the source gave no clear call. Such entries were picked first, then a sample of the others. Calls come from the whole dose curve; tested in HEK293 cells. Potencies beside an inconclusive call are fits to weak or partial responses and may not hold up.
Assay: qHTS for inhibitors of binding or entry into cells for Marburg Virus
Conditions: Marburg virus pseudotyped entry inhibition, cell reporter; series mostly up to 37.8 µM
With `Cc1ccc(S(=O)(=O)NCC(c2ccco2)N2CCOCC2)cc1` (stereo not given) the Potency was “inactive”.
With `N#C/C(=C\c1ccc(/C=C(/C#N)c2nn(CCO)c(N)c2C#N)cc1)c1nn(CCO)c(N)c1C#N` the Potency was inconclusive: 1.26 µM [inhibitor, single point].
With `O=C(c1cc(=O)[nH]c2ccccc12)N1CCc2ccccc2C1` the Potency was “inactive”.
For `Cc1cc(C)n2nc(C(=O)N/N=C/c3cccs3)nc2n1`, the Potency was “inactive”.
For `O=[N+]([O-])c1cccn2cc(-c3ccc(Br)cc3)nc12`, the Potency was inconclusive: 3.55 µM [activator, single point].
With `COc1cc(C(=O)Nc2c(C)cc(C)cc2C)c(-n2cnnn2)cc1OC` the Potency was “inactive”.
With `C1CCc2nnnn2CC1` the Potency was inconclusive: 0.1 µM [inhibitor, full curve, poor fit].
In the case of `CSc1ccc(CN(C)CC(=O)NC(=O)NCCC2=CCCCC2)cc1`, the Potency is reported as inconclusive: 3.16 µM [inhibitor, single point].
For `NC(=O)C1(N2CCCCC2)CCN(C(=O)c2ccc(C#Cc3ccccc3)o2)CC1`, the Potency was inconclusive: 12.6 µM [inhibitor, partial curve].
In the case of `Nc1ncncc1-c1ccccc1Cl`, the Potency is reported as “inactive”.
With `CCOC(=O)C1CCCN(C(=O)CC(C)c2ccccc2)C1` (stereo not given) the Potency was inconclusive: 2.06 µM [activator, partial curve, poor fit].
For `CCCOc1ccc(C2c3c(-c4ccccc4O)n[nH]c3C(=O)N2CCc2ccccc2)cc1OCC` (stereo not given), the Potency was inconclusive: 11.2 µM [inhibitor, partial curve].
In the case of `O=C(CCNS(=O)(=O)c1ccccc1)N1CCCCCCC1`, the Potency is reported as “inactive”.
With `CSc1nc2nc3c(cc2c(=O)n1-c1ccccc1C)CCCC3` the Potency was inconclusive: 7.94 µM [inhibitor, partial curve, poor fit].
In the case of `Cc1ccc(C(=O)NCCN2CCNC2=O)cc1`, the Potency is reported as “inactive”.
With `CCOc1ccc(C(C)=O)cc1CSc1nnc(-c2ccoc2C)n1N` the Potency was inconclusive: 0.259 µM [inhibitor, full curve, poor fit].
For `CCN(CC)C(=S)NC(=O)c1ccc(Cl)cc1Cl`, the Potency was inconclusive: 2.06 µM [inhibitor, partial curve, poor fit].
With `NC(=O)CCS(=O)(=O)CCN1CCCCC1` the Potency was inconclusive: 7.08 µM [inhibitor, partial curve, poor fit].
With `Cc1cc(C(=O)COC(=O)CNC(=O)c2ccc(Cl)c(Cl)c2)c(C)n1Cc1ccco1` the Potency was inconclusive: 3.16 µM [inhibitor, single point].
For `Cc1ccc(NC(=O)Nc2ccc(F)cc2)nc1`, the Potency was “inactive”.
With `O=C(CN1CCCCCC1)N1c2ccccc2C=Cc2ccccc21` the Potency was inconclusive: 32.6 µM [inhibitor, single point].
For `Cc1noc(C)c1COc1ccc(C(=O)OCC(=O)N2CC(=O)Nc3ccccc32)cc1`, the Potency was “inactive”.
In the case of `O=[N+]([O-])c1ccccc1-c1ccc(C(=S)N2CCCC2)o1`, the Potency is reported as inconclusive: 2.82 µM [activator, partial curve, poor fit].
For `O=Cc1coc2ccc3ccccc3c2c1=O`, the Potency was inconclusive: 0.891 µM [inhibitor, full curve, poor fit].
In the case of `CC(Cc1ccccc1)NC(N)=O` (stereo not given), the Potency is reported as “inactive”.
With `Cc1nc2ccccc2n1C1CCN(CC(=O)NCc2ccc(F)cc2)CC1` the Potency was inconclusive: 4.11 µM [inhibitor, partial curve, poor fit].
With `COc1ccc(C(=O)c2oc3ccccc3c2NC(=O)c2cc(=O)c3ccc(C)cc3o2)cc1Cl` the Potency was inconclusive: 6.31 µM [inhibitor, single point].
In the case of `O=C(NN=Cc1c(O)ccc2ccccc12)c1ccncc1`, the Potency is reported as active: 3.16 µM.
For `C=CCOn1c(=O)c(-c2ccc(OC)cc2)[n+]([O-])c2ccccc21`, the Potency was inconclusive: 5.62 µM [activator, single point].
For `N#Cc1ccc2c(c1)C[C@]1(CCCCN3C(=O)c4ccccc4C3=O)Oc3c(c(=O)oc4ccc(F)cc34)[C@@H]2O1`, the Potency was “inactive”.
With `O=[N+]([O-])c1ccc(O)c(C=Nc2ccc3c(c2)OCCO3)c1` the Potency was “inactive”.
For `CCOc1ccccc1NC(=O)CSC1=NN2CCCC(=O)N=C2S1`, the Potency was inconclusive: 3.16 µM [activator, single point].
In the case of `Cc1ccc(Cn2c(N3CCCCCC3)nc3c2c(=O)[nH]c(=O)n3C)cc1`, the Potency is reported as inconclusive: 5.62 µM [activator, single point].
For `Cc1ccc(SCc2ccc(C(=O)Nc3cc([N+](=O)[O-])ccc3C)cc2)cc1`, the Potency was inconclusive: 23.1 µM [inhibitor, partial curve, poor fit].
In the case of `Cc1cc(Cl)ccc1NC(=S)NCc1ccco1`, the Potency is reported as inconclusive: 1.41 µM [inhibitor, partial curve, poor fit].
With `O=C(Nc1ccc(S(=O)(=O)NC2=NCCCCC2)cc1)c1ccc2ccccc2n1` the Potency was inconclusive: 35.5 µM [inhibitor, partial curve, poor fit].
With `CCOP(=O)(OCC)/C(=C/N1CCCCC1)NC(=O)c1ccccc1` the Potency was “inactive”.
For `COc1ccccc1-n1c(SCC(=O)Nc2cc(C)on2)nc2c([nH]c3ccccc32)c1=O`, the Potency was inconclusive: 10 µM [inhibitor, partial curve].
With `S=C(Nc1ccc(Cl)c(Cl)c1)N1CCOCC1` the Potency was “inactive”.
For `CCN1CCN(CCNC(=O)Cn2c(=O)c3cccn3c3ccc(F)cc32)CC1`, the Potency was inconclusive: 3.55 µM [inhibitor, partial curve, poor fit].
In the case of `Cc1ccc(S(=O)(=O)Nc2cc(Cl)c(O)cc2C)cc1`, the Potency is reported as inconclusive: 29.1 µM [inhibitor, single point].
For `CC12CC[C@H]3[C@@H](CCC4(O)C[C@H](O)CCC34/C=N/NC(=O)Cc3ccccc3)C1(O)CCC2C1=CC(=O)OC1` (stereo not given in full), the Potency was inconclusive: 11.2 µM [inhibitor, partial curve, poor fit].
In the case of `CCCCCCNc1cc(C)oc(=O)c1C(C)=O`, the Potency is reported as inconclusive: 12.6 µM [activator, partial curve, poor fit].
With `CNCCCCOc1ccccc1-c1ccccc1` the Potency was active: 7.08 µM.
For `S=C(NCc1ccc(Cl)cc1)NC12CC3CC(CC(C3)C1)C2`, the Potency was inconclusive: 35.5 µM [inhibitor, single point].
Potency is the fitted concentration of half-maximal effect.
